Laboratory results published in patent US20030144205A1.
Results are given in words; binding and its absence hold for the method and conditions named. Binding seen in cells or lysates may run through a third protein. Some entries that bind do so weakly or less than the wild type. For some assays here: Where a sequence is shown, tags or fusion partners need not be part of it.

T1: mouse RFPL4, full-length (amino acid residues 1-287) (mouse) (UniProt Q8VH31)
T1 sequence (looked up): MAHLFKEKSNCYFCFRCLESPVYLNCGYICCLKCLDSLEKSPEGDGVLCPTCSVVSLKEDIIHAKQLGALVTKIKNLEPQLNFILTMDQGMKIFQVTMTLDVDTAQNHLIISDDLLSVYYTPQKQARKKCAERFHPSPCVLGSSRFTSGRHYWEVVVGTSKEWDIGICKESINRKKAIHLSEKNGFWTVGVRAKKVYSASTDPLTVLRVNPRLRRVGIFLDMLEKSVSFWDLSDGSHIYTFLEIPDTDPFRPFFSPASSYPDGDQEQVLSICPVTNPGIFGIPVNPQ


How the values were obtained:
[1] = target: T1, mouse RFPL4, full-length (amino acid residues 1-287) (mouse); assay: co-immunoprecipitation of 35S-labelled proteins translated in vitro (anti-HA or anti-MYC)
[2] = target: T1, mouse RFPL4, full-length (amino acid residues 1-287) (mouse); assay: in vitro translation and co-immunoprecipitation

| Binder | binding [1] | binding [2] |
| --- | --- | --- |
| ZAR1 (HA-tagged) (protein, UniProt Q80SU3 1-361, looked up) MFPASTFHPCPHPYPQATKAGDGWRFGARGCRPAPPSFLPGYRQLMAAEYVDSHQRAQLMALLSRMGPRSVSSRDAAVQVNPRRDASVQCSLGRRTLQPAGCRASPDARSGSCQPRGHAGAGRSPRSWQTVAPFSSVTFCGLSSSLEVAGGRQTPTKGEGSPASSGTREPEPREVAARKAVPQPRSEEGDVQAAGQAGWEQQPPPEDRNSVAAMQSEPGSEEPCPAAEMAQDPGDSDAPRDQASPQSTEQDKERLRFQFLEQKYGYYHCKDCKIRWESAYVWCVQGTSKVYFKQFCRVCEKSYNPYRVEDITCQSCKRTRCACPVRLRHVDPKRPHRQDLCGRCKDKRLSCDSTFSFKYII | binds |  |
| Solute carrier family 25, member 5 (SLC25A5) (protein, mouse, UniProt P51881 1-298, looked up) MTDAAVSFAKDFLAGGVAAAISKTAVAPIERVKLLLQVQHASKQITADKQYKGIIDCVVRIPKEQGVLSFWRGNLANVIRYFPTQALNFAFKDKYKQIFLGGVDKRTQFWRYFAGNLASGGAAGATSLCFVYPLDFARTRLAADVGKAGAEREFKGLGDCLVKIYKSDGIKGLYQGFNVSVQGIIIYRAAYFGIYDTAKGMLPDPKNTHIFISWMIAQSVTAVAGLTSYPFDTVRRRMMMQSGRKGTDIMYTGTLDCWRKIARDEGSKAFFKGAWSNVLRGMGGAFVLVLYDEIKKYT |  | no binding |
